Source: PubChem BioAssay AID463205 (Broad Institute, 2010)
Screen size: about 2,400 compounds; about 20 (0.8%) were called active.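 Rule for the calls: active = AC50 no more than ten times the highest tested concentration, or full inhibition at every dose giving a flat fit (cut at about 30 µM in these data); inconclusive = flat fit with activity between 30% and 70%, or poor-quality invalid fit; inactive = AC50 more than ten times the top tested dose.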 Some of the results follow.

Assay: luciferase-based ADP detection interference – biochemical, luminescence, cell-free, homogeneous, artefact control for GSK-3a inhibitor project, dose response (AID 463205);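 note: kinase-free counter-screen against the ADP-Glo detection reagents only; potency is for inhibitors that reduce the luminescence signal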
Settings: Cell-free ADP-Glo detection reagents, 5 uM ADP

AC50, inactive:
C/C(=N\NC(=O)c1nnn(-c2nonc2N)c1-c1cccs1)c1ccc(C)cc1 > 30 µM
COc1ccccc1C(=O)Nc1ccncc1 > 30 µM
CCOC(=O)N1CCC(N2CCN(S(=O)(=O)c3ccc([N+](=O)[O-])cc3)CC2)CC1 > 30 µM
CCOc1cc(/C=C2\SC(N)=NC2=O)ccc1O > 30 µM
C/C(=N\NC(=O)c1nnn(-c2nonc2N)c1CN(C)c1ccccc1)c1ccc(O)cc1 > 30 µM
CCNc1cc(N2CCCC2)ccc1[N+](=O)[O-] > 30 µM
CC1(C)Oc2ccc3ccc(=O)oc3c2-c2cnoc21 > 30 µM
COc1ccccc1NC(=O)Nc1ccccc1Br > 30 µM
O=c1[nH]c(CN2CCN(CCO)CC2)nc2ccccc12 > 30 µM
C/C(=N\NC(=O)c1nnn(-c2nonc2N)c1-c1cccs1)c1ccncc1 > 30 µM
Cc1c(C(=O)N/N=C/c2cccnc2)nnn1-c1nonc1N > 30 µM
O=C(c1ccc(Cn2cnnn2)cc1)N1CCCC(Nc2ccc(F)c(F)c2)C1 (centres undefined) > 30 µM
NC(=O)c1ccc(N=C2C(=O)Nc3ccc([N+](=O)[O-])cc32)cc1 > 30 µM
COc1cccc(-c2c(C(=O)N/N=C(\C)c3cccs3)nnn2-c2nonc2N)c1 > 30 µM
O=C(/C(=N/N=C/c1ccc(O)c(O)c1)c1ccccc1)c1ccccc1 > 30 µM
COc1ccc(-c2cc(C(F)(F)F)nc(SCC(=O)NCc3cccs3)n2)cc1OC > 30 µM
COc1ccc(-c2noc(CSc3nc(N)cc(=O)[nH]3)n2)cc1 > 30 µM
COc1ccc(-c2cc(C(=O)N3CCN(c4ccccc4)CC3)no2)cc1OC > 30 µM
Clc1nccnc1N/N=C/c1ccc(Br)cc1 > 30 µM
CCOc1cc(/C=C2\SC(N3CCCCC3)=NC2=O)ccc1O > 30 µM
CCOC(=O)c1nc(NCc2ccccc2F)c2ccccc2n1 > 30 µM
Cn1c(SCc2cnc(-c3ccccc3)s2)nnc1C1COc2ccccc2O1 (centres undefined) > 30 µM
O=C(N/N=C/c1ccc(O)c(O)c1)C1CC1 > 30 µM
COc1ccccc1Nc1ccc(S(=O)(=O)N2CCCCC2)cc1[N+](=O)[O-] > 30 µM
CCc1c(C)c(C#N)c2nc3ccccc3n2c1NC > 30 µM
CCCC(=O)Nc1nc2ccc(OCC)cc2s1 > 30 µM
Cc1nc(C)c(C(=O)Nc2ncc([N+](=O)[O-])s2)o1 > 30 µM
N#C/C(=C/Nc1ccccc1)c1ccsc1 > 30 µM
N#Cc1c(-c2ccc(F)cc2)c2c([nH]c1=O)-c1ccccc1OC2 > 30 µM
CCOc1ccc(S(=O)(=O)Nc2cccc(C(=O)NCCCn3ccnc3)c2)cc1 > 30 µM
O=C1c2cnc3nc(SCc4ccc(Cl)cc4)nn3c2CC2c3ccccc3CCN12 (centres undefined) > 30 µM
O=C1N=C(C=c2ccc(=Cc3[nH]c(=O)[nH]c3O)cc2)C(=O)N1 > 30 µM
O=C(CCCN1C(=O)C2CCCCN2C1=O)N1CCN(c2ccc([N+](=O)[O-])cc2)CC1 (centres undefined) > 30 µM
CCOC(=O)c1[nH]c2c(c1-c1ccccc1)C(=O)CC(c1ccccc1)C2 (centres undefined) > 30 µM
c1cncc(-c2nc3ccccc3[nH]2)c1 > 30 µM
FC(F)(F)COc1ccc(-c2nnc(SCc3c(Cl)cccc3Cl)o2)cn1 > 30 µM
COc1cc(C2C(C#N)=C(N)Oc3n[nH]c(-c4cccnc4)c32)ccc1OCC(N)=O (centres undefined) > 30 µM
O=C(NCCO)c1ccccc1O > 30 µM
CCOc1ccc(-c2c(C(=O)N/N=C(\C)c3cccnc3)nnn2-c2nonc2N)cc1 > 30 µM
CN(C)Cc1c(C(=O)N/N=C/C2CC=CCC2)nnn1-c1nonc1N (centres undefined) > 30 µM
COC(=O)Nc1nnc(COc2ccccc2)s1 > 30 µM
Nc1nonc1-n1nnc(C(=O)N/N=C/c2cccs2)c1CSc1ccccc1 > 30 µM
COc1cc(/C=N/c2oc(C)c(C)c2C#N)cc(Br)c1O > 30 µM
COc1ccccc1OC(C)C(=O)N1CCC(Cc2ccccc2)CC1 (centres undefined) > 30 µM
CCOC(=O)Cc1csc(NC(=O)C2CCCN(S(=O)(=O)c3cnc[nH]3)C2)n1 (centres undefined) > 30 µM
COC(=O)[C@H]1[C@H](CCc2ccccc2)NC(=O)N(Cc2ccccc2)[C@@H]1C > 30 µM
CCCC(=O)Nc1nn(CC)c2nc3ccc(C)cc3cc12 > 30 µM
O=C(O)CN1C(=O)C2C3CC(C2C1=O)C1C(c2ccccc2)c2sc(=O)[nH]c2SC31 (centres undefined) > 30 µM
Cc1cc(N2CCN(c3ccccc3)CC2)n2nnnc2n1 > 30 µM
Cc1ccccc1-n1c2nc(=O)n(C)c(=O)c-2cc2ccccc21 > 30 µM
CCn1c2ccccc2c2nc3ccccc3nc21 > 30 µM
CC(=O)Nc1cccc(-c2csc(NCc3ccccc3)n2)c1 > 30 µM
Cc1ccc(N=C2NC(=O)/C(=C\c3ccco3)S2)cc1 > 30 µM
Cc1ccc(CSc2ccc3nnc(-c4cccnc4)n3n2)cc1 > 30 µM
COc1cc(/C=N/NC(=O)c2cccc(C(=O)N/N=C/c3ccc(O)c(OC)c3)n2)ccc1O > 30 µM
COc1ccc(-c2noc(CSc3nc(N)c(-c4ccccc4)c(=O)[nH]3)n2)cc1 > 30 µM
COc1ccc(/C=N/NC(=O)c2nnn(-c3nonc3N)c2-c2cccs2)cc1OC > 30 µM
Cc1ccc(-c2nc3ncccn3c2Nc2ccc3c(c2)OCCO3)cc1 > 30 µM
O=C1CCCC2=C1C(c1cccc(O)c1)c1c(ccc3ncccc13)N2 (centres undefined) > 30 µM

Retrieved by structure from the entries so far:
AC50, inactive:
O=C(NCCO)c1ccccc1O > 30 µM
O=C(CCCN1C(=O)C2CCCCN2C1=O)N1CCN(c2ccc([N+](=O)[O-])cc2)CC1 (centres undefined) > 30 µM
